Data from patent US6599541B1, “Composition for treatment of drug resistant bacterial infections and a method of treating drug resistant bacterial infections” (priority 1999, dated 2003).
Values after ≈ are worked out from the molar mass of the structure shown. Like-named read-outs stand apart in the source and are kept apart here.

System: Escherichia coli
Assay: Broth Macro Dilution Test, MIC and MBC
Assay type: cell-based
Settings: resistant to Ciprofloxacin, antibiotic alone, read-out: minimum inhibitory concentration (MIC)
Excerpt: This was done by estimation of the Minimum Inhibitory Concentration (MIC) and Minimum Bactericidal Concentration (MBC) on the selected isolates by a Broth Macro Dilution Test.
While conducting these tests, the guidelines given by the National committee of Clinical Laboratory Standards 1995 protocols were employed. Cation Supplemented Mueller Hinton Broth was used as medium for all organisms excepting for β haemolytic streptococci for which, Todd Hewit's Broth was used as medium.
The following concentrations of antibiotics were tested to determine MIC and MBC.
A minimum inhibitory concentration is the lowest level of antibiotic needed to cause an inhibition to bacterial growth in culture medium whereas, the minimum bactericidal concentration is the lowest concentration of antibiotic to achieve a 100% killing of bacteria. Thus, these two values are the practical indices of intensity of bacterial resistance to a given antibiotic. On the other hand, a break-even point of any antibiotic indicates the attainable blood levels after an administration of full dose, in human/animal body. Thus, this point indicates the practical dosage of administering any given antibiotic effectively and beyond this point, even if an antibiotic is found to act effectively in experimental situation—such dose cannot be administered in a clinical situation.

For O=C(O)c1cn(C2CC2)c2cc(N3CCNCC3)c(F)cc2c1=O [Ciprofloxacin], the MIC (Example 1: isolate from wound infection) was 8 µg/mL (≈ 24.1 µM) and the MIC (Example 2: isolate from endotracheal catheter tip culture) was 32 µg/mL (≈ 96.6 µM).
